Laboratory results taken from patent US10933145B2, “Compositions and methods for reducing the risk of radiocontrast-induced nephropathy” (UNIVERSITY OF PITTSBURGH—OF THE COMMONWEALTH SYSTEM OF …, priority 2016, dated 2021).
“Also recorded” adds a separate entry of the source. At least one structure is not confirmed: it was looked up by name or label, or the drawing left a doubt.

Key:
[1] = tested on: NFκB activity in MDCK cells; assay: NFκB activity in MDCK cells exposed to radiocontrast, with or without calcineurin inhibitor; type: cell-based, Canine; details: pre-treatment with calcineurin inhibitor, then radiocontrast, FIG. 4A-B
Source text: FIG. 4A-B. NFκB activity in MDCK cells exposed to increasing amounts of radiocontrast and treated with (A) FK506 (gray bar) or DMSO (as negative control, black bar) or (B) Cyclosporin A.
NFκB activity in MDCK cells exposed to increasing amounts of radiocontrast and treated with either FK506 (FIG. 4A) or cyclosporin A (FIG. 4B).

[2] = tested on: Madin-Darby Canine Kidney ("MDCK") epithelial cells; assay: Ca2+ signals in MDCK cells exposed to iohexol radiocontrast; type: cell-based; details: MDCK cells exposed to 33 percent radiocontrast; FIG. 1B
calcineurin isoform CnB1 = assay: CnB1 expression by Western blotting in MDCK cells; type: cell-based, Canine; details: 16% radiocontrast, FIG. 3

| SMILES | effect on radiocontrast-induced increase in NFκB activation [1] | Ca2+ signal [2] | calcineurin isoform CnB1 expression (calcineurin isoform CnB1) |
| --- | --- | --- | --- |
| C=CC[C@@H]1/C=C(\C)C[C@H](C)C[C@H](OC)[C@H]2O[C@@](O)(C(=O)C(=O)N3CCCC[C@H]3C(=O)O[C@H](/C(C)=C/[C@@H]3CC[C@@H](O)[C@H](OC)C3)[C@H](C)[C@@H](O)CC1=O)[C@H](C)C[C@@H]2OC [FK506, FK506 (tacrolimus)] | could be reduced; also recorded: substantially reduced this increase | – | – |
| CC(=O)N(CC(O)CO)c1c(I)c(C(=O)NCC(O)CO)c(I)c(C(=O)NCC(O)CO)c1I (stereo not drawn) [iohexol radiocontrast, iohexol] | – | sharp signal followed by a gradual decrease to baseline | induced |
